# According to PubChem BioAssay AID1688 (National Center for Advancing Translational Sciences (NCATS), 2009):
# The whole screen tested about 220,000 compounds, of which about 2,400 (1.1%) were called active. Inconclusive means that the source gave no clear call. Such entries were picked first, then a sample of the others. The call rests on the fitted dose curve; in most records, active means well fitted inhibition curve with a large enough effect; inconclusive means small, poorly fitted or top-dose-only effect, or effect the other way; inactive means no such curve, though single readings can be large or run the other way. Where the call is inconclusive, the potency comes from a doubtful curve fit.
# Assay: qHTS Multiplex Assay to Identify Dual Action Probes in a Cell Model of Huntington: Aggregate Formation (GFP); further: nearly all actives have a fitted effect of over 60% in size
# Details: PC12 HttQ103-GFP aggregates, Acumen cytometry, 40 h; activity change, negative = inhibition: at 46.1 µM (top of the series) unless noted
# Summary of the method: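 Huntingtin Q103 exon 1–GFP aggregates in induced PC12 cells (100 nM tebufenozide) were quantified by cytometry from lysates, with compounds dosed in titration.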
# On the % scale 0 is the no-effect control and ±100 the full control effect; potency means the concentration at half of the fitted maximal effect.
Compound,Potency,"activity change, negative = inhibition"
NC(=O)c1cccc2c1C(=O)N(C1CCCCC1)C2,"inconclusive: 1.41 µM [activator, full curve]",
O=C(O)CCNC(=O)C12CC3CC(CC(C3)C1)C2,"inconclusive: 0.501 µM [activator, partial curve, poor fit]",
Cc1[nH]n(-c2ccccc2)c(=O)c1N=Nc1nccs1,active: 11.2 µM,
COc1cc(CNC2CCCC2)cc(Cl)c1OCc1ccccc1F,"inconclusive: 35.5 µM [inhibitor, single point]",
CCCCOc1ccccc1NC(=O)CC1Nc2ccccc2NC1=O (stereo unspecified),,inactive: 8.72%
Cc1ccc2nc(N3CCN(c4ccccc4F)CC3)c(C=O)c(=O)n2c1,"inconclusive: 35.5 µM [inhibitor, partial curve]",
O=C1c2ccccc2OC2(C=Cc3ccccc3O2)N1Cc1ccccc1 (stereo unspecified),"inconclusive: 35.5 µM [inhibitor, single point]",
COc1cc(NC(=O)Cn2ncc(Cl)c(Cl)c2=O)c(C)cc1[N+](=O)[O-],"inconclusive: 35.5 µM [inhibitor, single point]",
CCOC(=O)c1c(C)[nH]c(O)c1C=Nc1ccc(Cl)cc1,,inactive: 21.8%
Cn1cc(C(=O)c2cccc(Cl)c2Cl)cc1C#N,"inconclusive: 25.1 µM [inhibitor, single point]",
Cc1occc1C(=O)Nc1ccc2c(c1)CCC2,"inconclusive: 0.562 µM [inhibitor, full curve, poor fit]",
O=C(NCc1ccco1)c1cccc2ccccc12,,inactive: -15.5%
COc1cc2c(cc1OC)C(c1ccc(N(C)C)cc1)CC(=O)N2 (stereo unspecified),,inactive: -15.2%
COc1ccc(NCc2nc3ccccc3n2CCOc2ccccc2)cc1,"inconclusive: 8.91 µM [inhibitor, partial curve]",
CCCCCNC(=O)CCCCn1c(=O)[nH]c2cc(OCC)c(OCC)cc2c1=O,,inactive: 3.77%
Cc1ccc(CNC(=O)c2ccc(N(C)C)cc2)cc1,"inconclusive: 0.501 µM [activator, full curve, poor fit]",
CC(C)(C)C1CCc2c(sc(NC(=O)C3CCCO3)c2C(N)=O)C1 (stereo unspecified),"inconclusive: 0.1 µM [inhibitor, partial curve, poor fit]",
CCOC(=O)c1ccc(NC(=S)NCC(O)c2ccccc2)cc1 (stereo unspecified),"inconclusive: 12.6 µM [inhibitor, partial curve]",
CC1=C/C(=N\NC(=S)Nc2cccnc2)CC(C)(C)C1,"inconclusive: 5.62 µM [activator, single point]",
NC(=O)CSCc1c(Cl)cccc1Cl,,inactive: -9.39%
Cc1ccc(-c2nn(CC(=O)NCc3ccco3)c(=O)c3ccccc23)cc1,,inactive: -7.71%

# Gathered by group, the compounds so far containing fluorine (two)
Compound,Potency,"activity change, negative = inhibition"
COc1cc(CNC2CCCC2)cc(Cl)c1OCc1ccccc1F,"inconclusive: 35.5 µM [inhibitor, single point]",
Cc1ccc2nc(N3CCN(c4ccccc4F)CC3)c(C=O)c(=O)n2c1,"inconclusive: 35.5 µM [inhibitor, partial curve]",
